No constants are given. Whether binding was seen depends on the method and setting. Some binding calls cover weakened binding; strength is not graded here.
Assays:
human folate receptor 1 [1] = biological target: T1, human folate receptor 1 (human, UniProt P15328 25-234); assay: flow cytometry on FOLR1-expressing SKOV3 cells, antibodies and their SPDB-DM4, PEG4Mal-DM4, SMCC-DM1 or sulfo-SPDB-DM4 conjugates; Kd values only in FIG. 5
human folate receptor 1 [2] = biological target: T1, human folate receptor 1; assay: flow cytometry on 300-19 cells transfected with human FOLR1, detection with FITC anti-human secondary antibody; 300-19 parental cells as negative cell line
human folate receptor 1 [3] = biological target: T1, human folate receptor 1; assay: flow cytometry on 300-19 cells expressing human FOLR1

Amino acid sequences for entries named in this document (tags omitted). A change or cut given only in a name is not applied to a line headed by its entry.
UniProt P15328: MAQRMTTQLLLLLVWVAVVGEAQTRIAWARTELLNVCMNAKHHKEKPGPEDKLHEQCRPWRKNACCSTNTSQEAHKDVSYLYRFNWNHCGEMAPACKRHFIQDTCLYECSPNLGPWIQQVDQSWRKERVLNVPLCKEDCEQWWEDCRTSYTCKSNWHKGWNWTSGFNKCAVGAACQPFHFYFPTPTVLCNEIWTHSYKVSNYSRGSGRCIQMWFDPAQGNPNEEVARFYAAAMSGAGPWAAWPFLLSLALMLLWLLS

Measured: binding

B1: huMov19 (antibody, V domains shown)
VH: QVQLVQSGAEVVKPGASVKISCKASGYTFTGYFMNWVKQSPGQSLEWIGRIHPYDGDTFYNQKFQGKATLTVDKSSNTAHMELLSLTSEDFAVYYCTRYDGSRAMDYWGQGTTVTVSS
VL: DIVLTQSPLSLAVSLGQPAIISCKASQSVSFAGTSLMHWYHQKPGQQPRLLIYRASNLEAGVPDRFSGSGSKTDFTLNISPVEAEDAATYYCQQSREYPYTFGGGTKLEIKR
notes: Resurfaced humanized Mov19, full IgG1/kappa; also called humanized Mov19
binds: all assays above

Reference: patent US20160075781A1 (IMMUNOGEN, published 2016)
